# Experimental data: patent publication US12410152B2, “Oxazole and thioazole-type cullin ring ubiquitin ligase compounds and uses thereof” (Proxygen GmbH, priority 2019, dated 2025)
# This continues a long series; more values of the same kind are listed elsewhere.
# System: KBM7 WT cells (global proteome)
# Assay: Quantitative expression proteomics (TMT isobaric tagging), drug vs DMSO
# Type: cell-based, human
# From the text: The mechanism by which the assayed molecules re-program a functional CRL4B complex based on the data shown could be that drug binding to CUL4B recruits a neo-substrate directly to the cullin backbone. Alternatively, drug binding could stabilize CUL4B function to boost time intervals where a functionally competent CUL4B complexes can be formed. Here, the word “functional” implies that the CUL4B backbone of this complex needs to be neddylated, and a CUL4B associated E2 ubiquitin-conjugating enzyme (UBE2G1) needs to be bound. FIG. 9 outlines one possible mechanism. Both predicted mechanisms of action would result in a functionally altered CRL4B complex, and thus an altered stability of drug-induced (neo-) substrates. In order to identify target proteins with a decreased abundance or, in other words, target proteins that become degraded by CRL4B after drug treatment, global proteome composition was measured using quantitative expression proteomics (TMT-labeling). In brief, KBM7 cells were drug treated for 12 hours, lysed, and subjected to isobaric tagging. Ensuing proteomics analysis quantified a total of 7,903 proteins at a minimum spectral count of 2. […] Data on essentiality are taken from Hart et al., G3, August 2017 (PMID: 28655737).
# 50×10^6 KBM7^WT cells per condition were collected, washed four times with ice-cold PBS, the supernatant aspirated and pellets snap-frozen in liquid N2. Each washed cell pellet was lysed separately in 40 μL of freshly prepared lysis buffer as previously described (see Mayor-Ruiz et al., Mol Cell 2019)
# Offline Fractionation via RP-HPLC at high pH and 2D-RP/RP Liquid Chromatography Mass Spectrometry were performed as previously described (see Mayor-Ruiz et al., Mol Cell 2019).
# Acquired raw data files were processed using the Proteome Discoverer 2.2.0 platform, utilizing the Sequest HT database search engine and Percolator validation software node (V3.04) to remove false positives with a false discovery rate (FDR) of 1% on peptide and protein level under strict conditions. Searches were performed with full tryptic digestion against the human SwissProt database v2017.06 with up to two allowed miscleavage sites. Oxidation (+15.9949 Da) of methionine was set as variable modification, whilst carbamidomethylation (+57.0214 Da) of cysteine residues and TMT 6-plex labelling of peptide N-termini and lysine residues were set as fixed modifications. Data was searched with mass tolerances of ±10 ppm and ±0.02 Da on the precursor and fragment ions, respectively. Results were filtered to include peptide spectrum matches (PSMs) with Sequest HT cross-correlation factor (Xcorr) scores of […] and high peptide confidence assigned by Percolator. MS^2 signal-to-noise values (S/N) values of TMT reporter ions were used to estimate peptide/protein abundance changes. PSMs with precursor isolation interference values of ≥ 50% and average TMT-reporter ion S/N≤10 were excluded from quantitation. Only unique peptides were used for TMT quantitation as well as for TOP3 label-free quantitation. Isotopic impurity correction and TMT channel-normalization based on total peptide amount were applied. For statistical analysis and p-value calculation, the integrated ANOVA hypothesis test was used. TMT ratios with p-values below 0.01 were considered as significant. Only proteins with >1 peptide detected and >1 unique peptide detected were considered for further analysis. For the calling of destabilized proteins, a log 2 fold change threshold (drug/DMSO) of −0.3 was applied.
# Comparison of overall proteome-wide changes in KBM7 cells treated with IC020772.1 (2.5 μM), IC021313.2 (7 μM) or T6938051 (3.5 μM) for 5 h and 12h, using quantitative proteomics based on isobaric tagging.
# The protein names in Table 4, Table 5 and Table 6 refer to the protein names as provided by HUGO Gene Nomenclature Committee (HGNC) database. […]
smiles,measurement,setting,value
O=C(CSc1nnc2c(n1)[nH]c1ccccc12)Nc1ccc(Cl)cn1 [IC020772.1],log2FC (IC020772.1/DMSO),VDR (P11473-2),−0.484
same,log2FC (IC020772.1/DMSO),WAS (P42768),−0.3437
same,log2FC (IC020772.1/DMSO),WDR76 (Q9H967),−0.3201
same,log2FC (IC020772.1/DMSO),XPR1 (Q9UBH6-1),−0.3659
same,log2FC (IC020772.1/DMSO),YBX1 (P67809),−0.3715
same,log2FC (IC020772.1/DMSO),YIPF6 (Q96EC8-1),−0.4403
same,log2FC (IC020772.1/DMSO),ZCCHC7 (Q8N3Z6-1),−0.3997
same,log2FC (IC020772.1/DMSO),ZFAND6 (Q6FIF0-1),−0.3677
same,log2FC (IC020772.1/DMSO),ZFPL1 (O95159),−0.8186
same,log2FC (IC020772.1/DMSO),ZNF317 (Q96PQ6-1),−0.48
same,log2FC (IC020772.1/DMSO),ZNF324 (O75467),−0.4035
same,log2FC (IC020772.1/DMSO),ZNF706 (Q9Y5V0),−0.4364
same,log2FC (IC020772.1/DMSO),ZNF813 (Q6ZN06),−0.3456
same,log2FC (IC020772.1/DMSO),ZNRF1 (Q8ND25-1),−0.4422
same,log2FC (IC020772.1/DMSO),ZWILCH (Q9H900-1),−0.3959
same,log2FC (IC020772.1/DMSO),protein AFTPH (Q6ULP2-1),−0.3273
same,log2FC (IC020772.1/DMSO),protein ALKBH4 (Q9NXW9-1),−0.3076
same,log2FC (IC020772.1/DMSO),protein APOBR (QOVD83-4),−0.3058
same,log2FC (IC020772.1/DMSO),protein ARFIP2 (P53365-1),−0.3058
same,log2FC (IC020772.1/DMSO),protein ARHGAP15 (Q53QZ3),−0.3111
same,log2FC (IC020772.1/DMSO),protein BIRC5 (O15392-1),−0.3219
same,log2FC (IC020772.1/DMSO),protein BLM (P54132),−0.3219
same,log2FC (IC020772.1/DMSO),protein BSDC1 (Q9NW68-1),−0.3094
same,log2FC (IC020772.1/DMSO),protein C8orf33 (Q9H7E9-2),−0.3273
same,log2FC (IC020772.1/DMSO),protein C12orf65 (Q9H3J6-1),−0.3237
same,log2FC (IC020772.1/DMSO),protein CAPN7 (Q9Y6W3),−0.3129
same,log2FC (IC020772.1/DMSO),protein CDCA8 (Q53HL2),−0.3292
same,log2FC (IC020772.1/DMSO),protein CHTF8 (P0CG12-1),−0.3273
same,log2FC (IC020772.1/DMSO),protein CLDND1 (Q9NY35-1),−0.3255
same,log2FC (IC020772.1/DMSO),protein CLPB (Q9H078-2),−0.3237
same,log2FC (IC020772.1/DMSO),protein CNOT7 (Q9UIV1-1),−0.3058
same,log2FC (IC020772.1/DMSO),protein COA6 (Q5JTJ3-2),−0.304
same,log2FC (IC020772.1/DMSO),protein COPS7A (Q9UBW8),−0.3273
same,log2FC (IC020772.1/DMSO),protein DDX49 (Q9Y6V7-1),−0.3058
same,log2FC (IC020772.1/DMSO),protein DHPS (P49366-1),−0.3094
same,log2FC (IC020772.1/DMSO),protein DIAPH3 (Q9NSV4-3),−0.304
same,log2FC (IC020772.1/DMSO),protein EIF3M (Q7L2H7-1),−0.3111
same,log2FC (IC020772.1/DMSO),protein EPN1 (Q9Y6I3-2),−0.3076
same,log2FC (IC020772.1/DMSO),protein ERBIN (Q96RT1-8),−0.304
same,log2FC (IC020772.1/DMSO),protein FAM118A (Q9NWS6-1),−0.3129
same,log2FC (IC020772.1/DMSO),protein FBRSL1 (Q9HCM7),−0.3219
same,log2FC (IC020772.1/DMSO),protein FGFR1OP (O95684-1),−0.3094
same,log2FC (IC020772.1/DMSO),protein GBP1 (P32455),−0.3094
same,log2FC (IC020772.1/DMSO),protein GTF2E2 (P29084),−0.3094
same,log2FC (IC020772.1/DMSO),protein HINFP (Q9BQA5-1),−0.3219
same,log2FC (IC020772.1/DMSO),protein KIAA0586 (Q9BVV6-3),−0.3076
same,log2FC (IC020772.1/DMSO),protein KIAA0907 (Q7Z7F0-1),−0.3058
same,log2FC (IC020772.1/DMSO),protein LRP4 (O75096),−0.3237
same,log2FC (IC020772.1/DMSO),protein MARK4 (Q96L34-1),−0.3058
same,log2FC (IC020772.1/DMSO),protein MB21D1 (Q8N884-1),−0.3004
same,log2FC (IC020772.1/DMSO),protein MITD1 (Q8WV92),−0.3058
same,log2FC (IC020772.1/DMSO),protein MKL2 (Q9ULH7-5),−0.3058
same,log2FC (IC020772.1/DMSO),protein MLKL (Q8NB16-1),−0.3129
same,log2FC (IC020772.1/DMSO),protein MRPL55 (Q7Z7F7-2),−0.304
same,log2FC (IC020772.1/DMSO),protein NIN (Q8N4C6-7),−0.304
same,log2FC (IC020772.1/DMSO),protein NOA1 (Q8NC60),−0.3292
same,log2FC (IC020772.1/DMSO),protein NPRL3 (Q12980),−0.304
same,log2FC (IC020772.1/DMSO),protein NRDC (O43847-2),−0.3022
same,log2FC (IC020772.1/DMSO),protein NUP37 (Q8NFH4),−0.3111
same,log2FC (IC020772.1/DMSO),protein PIGH (Q14442),−0.3111
same,log2FC (IC020772.1/DMSO),protein PNO1 (Q9NRX1),−0.3255
same,log2FC (IC020772.1/DMSO),protein POCIA (Q8NBT0-1),−0.3237
same,log2FC (IC020772.1/DMSO),protein POT1 (Q9NUX5-1),−0.3094
same,log2FC (IC020772.1/DMSO),protein PPP1R14A (Q96A00-1),−0.3076
same,log2FC (IC020772.1/DMSO),protein PPT2 (Q9UMR5-3),−0.3058
same,log2FC (IC020772.1/DMSO),protein PRMT3 (O60678-1),−0.3129
same,log2FC (IC020772.1/DMSO),protein PSMC3IP (Q9P2W1-1),−0.3273
same,log2FC (IC020772.1/DMSO),protein PSMG1 (O95456-1),−0.3292
same,log2FC (IC020772.1/DMSO),protein RGPD8 (O14715),−0.304
same,log2FC (IC020772.1/DMSO),protein RPF2 (Q9H7B2),−0.3273
same,log2FC (IC020772.1/DMSO),protein RRP36 (Q96EU6-1),−0.3255
same,log2FC (IC020772.1/DMSO),protein SH3BP5L (Q7L8J4-1),−0.3292
same,log2FC (IC020772.1/DMSO),protein SKP2 (Q13309-1),−0.304
same,log2FC (IC020772.1/DMSO),protein SLC3A2 (P08195-1),−0.3273
same,log2FC (IC020772.1/DMSO),protein SLC38A1 (Q9H2H9),−0.304
same,log2FC (IC020772.1/DMSO),protein SLITRK5 (O94991-1),−0.3273
same,log2FC (IC020772.1/DMSO),protein SORBS1 (Q9BX66-12),−0.3237
same,log2FC (IC020772.1/DMSO),protein SP110 (Q9HB58-7),−0.3255
same,log2FC (IC020772.1/DMSO),protein SPOP (O43791),−0.3255
same,log2FC (IC020772.1/DMSO),protein ST6GAL1 (P15907-1),−0.3255
same,log2FC (IC020772.1/DMSO),protein SURF2 (Q15527),−0.3219
same,log2FC (IC020772.1/DMSO),protein TAF9B (Q9HBM6),−0.3022
same,log2FC (IC020772.1/DMSO),protein TCF3 (P15923-2),−0.3111
same,log2FC (IC020772.1/DMSO),protein TMEM237 (Q96Q45-3),−0.3058
same,log2FC (IC020772.1/DMSO),protein TUT1 (Q9H6E5),−0.3129
same,log2FC (IC020772.1/DMSO),protein UBE3D (Q7Z6J8),−0.3058
same,log2FC (IC020772.1/DMSO),protein VAMP8 (Q9BV40),−0.3111
same,log2FC (IC020772.1/DMSO),protein WDR73 (Q6P4I2),−0.304
same,log2FC (IC020772.1/DMSO),protein WWP2 (O00308-1),−0.3111
same,log2FC (IC020772.1/DMSO),protein XK (P51811),−0.3058
same,log2FC (IC020772.1/DMSO),protein ZCCHC2 (Q9C0B9-1),−0.3076
same,log2FC (IC020772.1/DMSO),protein ZNF566 (Q969W8-2),−0.3094
